# Experimental data: PubChem BioAssay AID1508597 (Cure First, 2020)
# Screen: 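Genes whose silencing sensitises or protects ovarian cancer cells against rucaparib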 (primary screen)
# System: human ovarian carcinoma lines grown from tumours: OCI-P5x (papillary serous) and OCI-C5x (clear cell)
# Reagent: siRNA pool against human genes, 1.25 pmol siRNA per well
# Time to read-out: 72 h or 96 h, depending on the cell culture
# Conditions: rucaparib 20 µM (about IC30) or vehicle, present until read-out
# Rucaparib or vehicle: Rucaparib
# Cell line: OCI-P5x (serous)
# Measurement: 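ATP luminescence measured at 72 or 96 h according to the culture, then normalised and expressed as percent viability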
# Direction: viability, normalised: higher = more viable cells remaining
# Call rule: 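a well counts as a hit if its normalised viability is under 80 percent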
# Calls: active = viability under 80%; inactive = viability 80% or more
# This is an unselected part of the about 2,100 reagents, under one of the conditions tested. 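Calls flag viability under 80% in either arm, not effects specific to rucaparib; the reference for percent is not stated.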 Some reagents were tested in more than one well and are listed for each. No sequences are given here. Not stated in the record: the 100% reference.
target,technical replicate,"viability, normalised (%)",call
RAD54B (GeneID 25788),1,62.5,active
RAD54B (GeneID 25788),1,95.5,inactive
RAD54B (GeneID 25788),2,105,inactive
RAD54B (GeneID 25788),2,56.1,active
RAD54B (GeneID 25788),3,56.8,active
RAD54B (GeneID 25788),3,85,inactive
TAF1 (GeneID 6872),1,87.6,inactive
TAF1 (GeneID 6872),1,56.3,active
TAF1 (GeneID 6872),2,84.9,inactive
TAF1 (GeneID 6872),2,74.2,active
TAF1 (GeneID 6872),3,81.9,inactive
TAF1 (GeneID 6872),3,66,active
BDP1 (GeneID 55814),1,77.6,active
BDP1 (GeneID 55814),2,79,active
BDP1 (GeneID 55814),3,81.2,inactive
MORF4L1 (GeneID 10933),1,56.3,active
MORF4L1 (GeneID 10933),2,65.9,active
MORF4L1 (GeneID 10933),3,66.9,active
RIOK2 (GeneID 55781),1,105,inactive
RIOK2 (GeneID 55781),2,85.1,inactive
RIOK2 (GeneID 55781),3,98.2,inactive
CDK20 (GeneID 23552),1,91.5,inactive
CDK20 (GeneID 23552),2,57.8,active
CDK20 (GeneID 23552),3,86.5,inactive
EIF4A1 (GeneID 1973),1,67.8,active
EIF4A1 (GeneID 1973),2,53.1,active
EIF4A1 (GeneID 1973),3,67.9,active
CPS1 (GeneID 1373),1,64.7,active
CPS1 (GeneID 1373),2,39.1,active
CPS1 (GeneID 1373),3,70.4,active
PRKCZ (GeneID 5590),1,73.6,active
PRKCZ (GeneID 5590),2,56.6,active
PRKCZ (GeneID 5590),3,78.2,active
PIK3CB (GeneID 5291),1,38.5,active
PIK3CB (GeneID 5291),2,30.7,active
PIK3CB (GeneID 5291),3,31.5,active
MED8 (GeneID 112950),1,62.5,active
MED8 (GeneID 112950),2,64.6,active
MED8 (GeneID 112950),3,68.5,active
MBD3 (GeneID 53615),1,40.6,active
MBD3 (GeneID 53615),2,44.1,active
MBD3 (GeneID 53615),3,46.3,active
ERCC5 (GeneID 2073),1,105,inactive
ERCC5 (GeneID 2073),2,97.7,inactive
ERCC5 (GeneID 2073),3,77.4,active
SMAD1 (GeneID 4086),1,52.5,active
SMAD1 (GeneID 4086),2,54.7,active
SMAD1 (GeneID 4086),3,56.9,active
PYGO2 (GeneID 90780),1,36.1,active
PYGO2 (GeneID 90780),2,39.4,active
PYGO2 (GeneID 90780),3,38,active
TGFBR1 (GeneID 7046),1,119,inactive
TGFBR1 (GeneID 7046),2,109,inactive
TGFBR1 (GeneID 7046),3,99.7,inactive
MAK (GeneID 4117),1,94.2,inactive
MAK (GeneID 4117),2,79,active
MAK (GeneID 4117),3,86.2,inactive
RIOK3 (GeneID 8780),1,121,inactive
RIOK3 (GeneID 8780),2,96,inactive
RIOK3 (GeneID 8780),3,113,inactive
CBX4 (GeneID 8535),1,93.1,inactive
CBX4 (GeneID 8535),2,92.6,inactive
CBX4 (GeneID 8535),3,99.3,inactive
SUPT5H (GeneID 6829),1,41.8,active
SUPT5H (GeneID 6829),2,46.5,active
SUPT5H (GeneID 6829),3,43.3,active
SPHK2 (GeneID 56848),1,109,inactive
SPHK2 (GeneID 56848),2,107,inactive
SPHK2 (GeneID 56848),3,89.9,inactive
MED30 (GeneID 90390),1,44.3,active
MED30 (GeneID 90390),2,50.7,active
MED30 (GeneID 90390),3,53.5,active
NIN (GeneID 51199),1,42.7,active
NIN (GeneID 51199),2,24.6,active
NIN (GeneID 51199),3,43.7,active

A portion taken from the entries so far, as a working copy:
target,technical replicate,"viability, normalised (%)",call
CBX4 (GeneID 8535),1,93.1,inactive
CBX4 (GeneID 8535),2,92.6,inactive
CBX4 (GeneID 8535),3,99.3,inactive
SUPT5H (GeneID 6829),1,41.8,active
SUPT5H (GeneID 6829),2,46.5,active
